{
  "source": "paper PMC4895226",
  "key": {"GST-EB1 [1]": {"biological_target": "GST-EB1 (UniProt Q15691)", "experiment": "pull-down; GST-tagged protein expression lysate (E. coli BL21) added to cell lysate (MRC-5, DLD-1 or transfected HeLaM) in 50 mM Tris pH 7.4, 150 mM NaCl, 1% Triton X-100; 4 °C 2 h, then glutathione sepharose 1 h; immunoblot (anti-APC or anti-GFP)"}, "GST-EB1 [2]": {"biological_target": "GST-EB1 (UniProt Q15691)", "experiment": "pull-down; purified GST-KIF5Bct or GST-EB1 incubated with lysate of HeLaM cells transfected with GFP-APC-C or GFP-APC-CΔK; immunoblot with anti-GFP; only the target purified"}},
  "note": "No constants are given. Whether binding was seen depends on the method and setting. Binding seen in cells or lysates may run through a third protein. Some entries that bind do so weakly or less than the wild type.",
  "data": [
    {"substance": "truncated APC endogenously expressed in the DLD-1 colon cancer cell line (from UniProt P25054 1-1417) (domain or fragment)", "values": [
      {"measurement": "binding", "setting": "GST-EB1 [1]", "result": "no binding"}
    ]},
    {"substance": "GFP-APC-C (from UniProt P25054 2185-2843) (domain or fragment)", "values": [
      {"measurement": "binding", "setting": "GST-EB1 [1]", "result": "binds"}
    ]},
    {"substance": "GFP-APC-CΔK (from UniProt P25054 2185-2843) (domain or fragment)", "values": [
      {"measurement": "binding", "setting": "GST-EB1 [2]", "result": "binds"}
    ]}
  ]
}
